Assay results as given in the supplement of paper PMC7877785.
± gives the uncertainty stated by the source. Many entries were measured with a wide error.

Assay: self-splicing fitness, log relative to wild type (ln ratio); higher = more splicing; Tetrahymena group I intron in knt gene, E. coli kanamycin selection, DiMSum; sequences stand for … in CUCUCU…GGAGGGAAAAGUUAUCAGGCAUGCACCUGGUAGCUAGUCUUUAAACCAAUAGAUUGCAUCGGUUUAAAAGGCAAGACCGUCAAAUUGCGGGAAAGGGGUCAACAGCCGUUCAGUACCAAGUCUCAGGGGAAACUUUGAGAUGGCCUUGCAAAGGGUAUGGUAAUAAGCUGACGGACAUGGUCCUAACCACGCAGCCAAGUCCUAAGUCAACAGAUCUUCUGUUGAUAUGGAUGCAGUUCACAGACUAAAUGUCGGUCGGGGAAGAUGUAUUCUUCUCAUAAGAUAUAGUCGGACCUCUCCUUAAUGGGAGCUAGCGGAUGAAGUGAUGCAACACUGGAGCCGCUGGGAACUAAUUUGUAUGCGAAAGUAUAUUGAUUAGUUUUGGAGUACUCGUGGUCG
Summary of the method: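 Library with all eight P1ex-region intron nucleotides randomised, intron inside the knt kanamycin-resistance gene on pET-22b(+), in E. coli BL21(DE3). Cells grew overnight at 37°C or 30°C on LB agar with or without 25 μg/mL kanamycin (plus 100 μg/mL carbenicillin, 50 μM IPTG, 0.2% rhamnose), in six replicate transformations. Pooled colonies were amplicon-sequenced on Illumina HiSeq 2500. DiMSum fitness is the error-weighted combination of wild-type-normalised replicate fold changes, kanamycin versus none.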

Sequence | self-splicing fitness (ln) (30 °C) | self-splicing fitness (ln) (37 °C)
UGCAAGCAAUAUUACGAUCU | -0.477 ± 0.091 | -0.822 ± 0.1
AACGAGCAAUAUUACGCAGG | – | -2.61 ± 0.53
UCCCAGCAAUAUUACGACAG | -4.66 ± 0.51 | –
UGUUAGCAAUAUUACGCGGC | -5 ± 0.58 | –
UGUCAGCAAUAUUACGAGCG | 0.308 ± 0.083 | 0.59 ± 0.11
GAACAGCAAUAUUACGUUGA | -1.47 ± 0.066 | -1.02 ± 0.077
CUGGAGCAAUAUUACGCAGA | – | -3.51 ± 0.52
UACGAGCAAUAUUACGGCCC | – | -1.3 ± 0.6
CUUUAGCAAUAUUACGGCCA | -3.58 ± 0.76 | –
UAGGAGCAAUAUUACGACUC | – | -0.778 ± 1.4
UAGGAGCAAUAUUACGGAUA | -2.09 ± 0.29 | -1.46 ± 0.23
AGUCAGCAAUAUUACGGCGC | -0.611 ± 0.13 | -0.0744 ± 0.18
CGAGAGCAAUAUUACGAUUG | -4.54 ± 1 | –
UGUCAGCAAUAUUACGUCGC | – | -2.24 ± 0.64
UUGGAGCAAUAUUACGGCAU | -4.4 ± 0.51 | –
GUAUAGCAAUAUUACGCUCC | -3.12 ± 1.1 | -1.29 ± 1.2
UGUAAGCAAUAUUACGCUGC | -1.05 ± 0.67 | -1.47 ± 0.55
GGAGAGCAAUAUUACGAAGG | -3.59 ± 0.74 | -1.15 ± 0.84
GUGGAGCAAUAUUACGCGAG | -3.18 ± 0.61 | –
CCUAAGCAAUAUUACGUGAC | – | -2.83 ± 0.54
UGGGAGCAAUAUUACGGACC | -2.97 ± 0.53 | -1.79 ± 0.53
GGGAAGCAAUAUUACGAGGU | – | -3.94 ± 0.73
UGAGAGCAAUAUUACGUUUU | -4.66 ± 0.59 | -3.29 ± 0.6
CGCGAGCAAUAUUACGGGAA | -3.74 ± 0.27 | -2.4 ± 0.29

Some of the entries above in another layout:
Sequence	self-splicing fitness (ln) (30 °C)	self-splicing fitness (ln) (37 °C)
UGCAAGCAAUAUUACGAUCU	-0.477 ± 0.091	-0.822 ± 0.1
CUGGAGCAAUAUUACGCAGA	–	-3.51 ± 0.52
CUUUAGCAAUAUUACGGCCA	-3.58 ± 0.76	–
AGUCAGCAAUAUUACGGCGC	-0.611 ± 0.13	-0.0744 ± 0.18

(continued)

Sequence | self-splicing fitness (ln) (30 °C) | self-splicing fitness (ln) (37 °C)
UGGCAGCAAUAUUACGGUGA | -0.428 ± 0.097 | 0.214 ± 0.12
CUGGAGCAAUAUUACGGUUA | -1.79 ± 0.26 | -2.31 ± 0.26
UUGAAGCAAUAUUACGAUAA | -0.132 ± 0.23 | 0.686 ± 0.36
GUGCAGCAAUAUUACGGUUA | -0.723 ± 0.092 | -0.164 ± 0.089
GAGGAGCAAUAUUACGCAUC | -1.32 ± 0.71 | –
UGACAGCAAUAUUACGGCCG | -0.739 ± 0.14 | 0.186 ± 0.19
CUCUAGCAAUAUUACGCAUC | -3.63 ± 0.53 | –
GGCCAGCAAUAUUACGCAGG | -5.87 ± 0.58 | –
CUUGAGCAAUAUUACGGAGA | -4.17 ± 0.52 | -2.03 ± 0.54
CCUUAGCAAUAUUACGCUCC | -3.64 ± 0.63 | -1.44 ± 0.5
CGGGAGCAAUAUUACGCGCU | – | -2.55 ± 0.62
GGUAAGCAAUAUUACGACAG | -2.56 ± 0.29 | -1.99 ± 0.44
UGAGAGCAAUAUUACGGGAC | – | -1 ± 0.92
AGCAAGCAAUAUUACGCUCG | – | -2.01 ± 0.84
GCGGAGCAAUAUUACGCCAA | – | -1.91 ± 0.78
CUCGAGCAAUAUUACGAGUU | -4.82 ± 0.59 | –
CUUUAGCAAUAUUACGCAAC | – | -2.97 ± 0.53
UCCGAGCAAUAUUACGCCUC | -4.59 ± 0.72 | –
AUAUAGCAAUAUUACGAAGC | – | -2.86 ± 0.61
CCUAAGCAAUAUUACGGAGA | -4.32 ± 0.52 | –
UACGAGCAAUAUUACGGAAA | -3.39 ± 1 | –
UCUAAGCAAUAUUACGAACC | -1.52 ± 0.71 | 0.468 ± 0.86
CUACAGCAAUAUUACGAUCG | -0.0619 ± 0.061 | 0.736 ± 0.085
